Assay results reported in the M2OR odorant receptor database.
The entries are a selection whose mix differs from that of the whole data set. Calls are pooled over several reports, among them a noisy single-well screen.

Assays:
Settings in all cases: stereoisomer not certain
UniProt Q8VGH1 = molecular target: T1, UniProt Q8VGH1
T1 sequence (whole entry): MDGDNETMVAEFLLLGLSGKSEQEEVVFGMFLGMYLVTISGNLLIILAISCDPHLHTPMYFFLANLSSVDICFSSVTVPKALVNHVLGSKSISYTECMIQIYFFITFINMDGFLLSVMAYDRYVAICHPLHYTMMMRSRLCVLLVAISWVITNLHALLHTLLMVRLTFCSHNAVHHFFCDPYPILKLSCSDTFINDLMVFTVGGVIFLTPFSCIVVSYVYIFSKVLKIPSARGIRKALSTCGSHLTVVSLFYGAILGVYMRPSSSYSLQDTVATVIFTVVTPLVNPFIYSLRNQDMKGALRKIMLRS
Summary of the method: (§1)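 Whether a receptor–molecule pair is responsive (active) rests on the original authors' judgment that its measured signal was statistically different from baseline. Pairs without that judgment are non-responsive (inactive). Sources used varied assay methods, commonly transient luciferase assays in mammalian cell lines.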

UniProt Q8VGJ1 = molecular target: T2, UniProt Q8VGJ1
T2 sequence (whole entry): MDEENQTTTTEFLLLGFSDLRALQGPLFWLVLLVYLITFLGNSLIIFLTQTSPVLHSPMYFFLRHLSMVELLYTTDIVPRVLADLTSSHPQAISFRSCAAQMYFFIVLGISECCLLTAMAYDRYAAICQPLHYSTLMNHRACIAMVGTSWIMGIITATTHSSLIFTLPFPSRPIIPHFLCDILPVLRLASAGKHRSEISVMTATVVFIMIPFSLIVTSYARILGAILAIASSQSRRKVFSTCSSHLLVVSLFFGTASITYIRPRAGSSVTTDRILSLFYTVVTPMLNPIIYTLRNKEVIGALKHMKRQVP
Summary of the method: as §1

UniProt Q8VGJ3 = molecular target: T3, UniProt Q8VGJ3
T3 sequence (whole entry): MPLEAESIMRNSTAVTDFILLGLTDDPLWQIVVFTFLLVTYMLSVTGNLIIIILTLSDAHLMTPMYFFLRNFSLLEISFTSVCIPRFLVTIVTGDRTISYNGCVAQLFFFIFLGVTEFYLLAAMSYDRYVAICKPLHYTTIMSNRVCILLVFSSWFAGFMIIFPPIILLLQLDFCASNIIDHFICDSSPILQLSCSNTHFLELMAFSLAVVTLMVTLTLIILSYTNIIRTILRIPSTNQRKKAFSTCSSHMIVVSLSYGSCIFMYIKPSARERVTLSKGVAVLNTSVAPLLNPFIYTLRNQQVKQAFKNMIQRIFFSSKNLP
Summary of the method: as §1

UniProt Q8VGJ5 = molecular target: T4, UniProt Q8VGJ5
T4 sequence (whole entry): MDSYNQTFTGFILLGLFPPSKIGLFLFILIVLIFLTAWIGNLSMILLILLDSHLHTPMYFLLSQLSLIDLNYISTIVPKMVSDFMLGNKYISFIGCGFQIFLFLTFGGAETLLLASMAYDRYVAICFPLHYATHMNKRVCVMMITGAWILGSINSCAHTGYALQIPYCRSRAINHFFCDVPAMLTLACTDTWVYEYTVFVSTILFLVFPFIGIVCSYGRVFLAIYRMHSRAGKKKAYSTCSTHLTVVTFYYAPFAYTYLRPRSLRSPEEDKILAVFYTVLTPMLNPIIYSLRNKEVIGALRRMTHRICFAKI
Summary of the method: as §1

UniProt Q8VGL0 = molecular target: T5, UniProt Q8VGL0
T5 sequence (whole entry): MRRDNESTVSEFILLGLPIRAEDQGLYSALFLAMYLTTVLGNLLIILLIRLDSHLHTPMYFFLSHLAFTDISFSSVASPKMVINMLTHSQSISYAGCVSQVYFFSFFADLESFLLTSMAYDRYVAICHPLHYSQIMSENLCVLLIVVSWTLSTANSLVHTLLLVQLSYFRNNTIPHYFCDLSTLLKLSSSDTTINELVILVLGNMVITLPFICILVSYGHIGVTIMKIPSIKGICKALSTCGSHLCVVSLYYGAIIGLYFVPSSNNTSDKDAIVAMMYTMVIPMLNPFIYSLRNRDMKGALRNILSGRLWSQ
Summary of the method: as §1

UniProt Q8VGL7 = molecular target: T6, UniProt Q8VGL7
T6 sequence (whole entry): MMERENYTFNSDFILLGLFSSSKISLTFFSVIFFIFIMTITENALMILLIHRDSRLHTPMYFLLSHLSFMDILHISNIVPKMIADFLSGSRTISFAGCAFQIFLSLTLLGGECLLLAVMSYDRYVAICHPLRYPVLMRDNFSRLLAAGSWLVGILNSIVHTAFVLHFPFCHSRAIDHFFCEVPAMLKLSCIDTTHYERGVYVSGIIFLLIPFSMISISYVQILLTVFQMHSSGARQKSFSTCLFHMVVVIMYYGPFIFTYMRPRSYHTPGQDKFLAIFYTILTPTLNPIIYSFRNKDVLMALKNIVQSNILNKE
Summary of the method: as §1

UniProt Q8VGM2 = molecular target: T7, UniProt Q8VGM2
T7 sequence (whole entry): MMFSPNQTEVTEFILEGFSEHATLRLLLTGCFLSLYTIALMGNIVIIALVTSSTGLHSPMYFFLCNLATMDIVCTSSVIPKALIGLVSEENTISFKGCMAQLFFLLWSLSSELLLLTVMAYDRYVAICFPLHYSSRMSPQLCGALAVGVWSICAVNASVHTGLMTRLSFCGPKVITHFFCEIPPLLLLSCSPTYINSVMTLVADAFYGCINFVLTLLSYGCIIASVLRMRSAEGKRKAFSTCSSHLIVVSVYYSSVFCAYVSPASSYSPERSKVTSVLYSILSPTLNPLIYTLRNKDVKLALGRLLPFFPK
Summary of the method: as §1

UniProt Q8VGP6 = molecular target: T8, UniProt Q8VGP6
T8 sequence (whole entry): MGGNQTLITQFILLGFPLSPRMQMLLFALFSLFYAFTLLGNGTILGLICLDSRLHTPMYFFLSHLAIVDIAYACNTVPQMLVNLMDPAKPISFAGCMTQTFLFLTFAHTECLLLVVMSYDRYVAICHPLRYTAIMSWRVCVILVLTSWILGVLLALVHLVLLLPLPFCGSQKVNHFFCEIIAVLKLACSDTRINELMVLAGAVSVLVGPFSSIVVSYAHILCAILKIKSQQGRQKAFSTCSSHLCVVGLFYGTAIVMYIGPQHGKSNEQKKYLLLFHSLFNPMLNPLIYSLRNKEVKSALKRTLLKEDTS
Summary of the method: as §1

UniProt Q8VGQ3 = molecular target: T9, UniProt Q8VGQ3
T9 sequence (whole entry): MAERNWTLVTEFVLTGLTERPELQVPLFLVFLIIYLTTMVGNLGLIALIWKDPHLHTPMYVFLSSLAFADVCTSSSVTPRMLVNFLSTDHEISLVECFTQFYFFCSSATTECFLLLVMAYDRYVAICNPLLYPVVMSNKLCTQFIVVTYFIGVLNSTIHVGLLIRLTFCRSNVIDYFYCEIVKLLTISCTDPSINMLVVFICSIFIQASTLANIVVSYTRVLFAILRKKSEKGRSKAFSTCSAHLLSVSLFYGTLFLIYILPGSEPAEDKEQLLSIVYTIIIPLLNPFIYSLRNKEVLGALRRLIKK
Summary of the method: as §1

Measured: odorant receptor agonist call;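 further: active if original authors judged signal statistically different from baseline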

CCCCCCCCC=O
inactive: all assays above
